{"sequences": {"note": "Chains of the proteins cited; added tags and fusions are not shown.", "UniProt P09471, whole entry, looked up": "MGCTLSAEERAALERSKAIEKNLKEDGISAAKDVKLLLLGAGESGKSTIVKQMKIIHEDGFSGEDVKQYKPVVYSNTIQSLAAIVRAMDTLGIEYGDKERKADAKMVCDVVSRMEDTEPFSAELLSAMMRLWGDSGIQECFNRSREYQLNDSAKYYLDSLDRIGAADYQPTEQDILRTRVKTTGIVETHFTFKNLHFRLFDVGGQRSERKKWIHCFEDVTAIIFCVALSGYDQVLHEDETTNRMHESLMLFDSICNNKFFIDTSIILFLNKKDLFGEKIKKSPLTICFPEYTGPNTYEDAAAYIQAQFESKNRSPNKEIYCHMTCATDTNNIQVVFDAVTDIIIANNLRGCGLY"}, "source": "PubChem BioAssay AID1439", "about": "(NMMLSC, 2008)", "note": "Out of some 220,000 compounds screened, about 770 (0.35%) were called active. Inconclusive means that the source gave no clear call. Such entries were picked first, then a sample of the others. Rule as the data show it: active = binding response below about 49% or above about 150%; inconclusive = no clear call, values can overlap the other calls; inactive = in between.", "data": [{"target": "Guanine nucleotide-binding protein G(o) subunit alpha (Homo sapiens) (UniProt P09471)", "assay": "RGS7-Galphao binding modulators, primary screen, biochemical, multiplexed bead flow cytometry (AID 1439);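 also: fluorescent Galphao held in activated GDP-AlF4 state binding bead-coupled RGS7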", "conditions": "at 10 µM, actives lie on both sides", "values": [{"compound": "Cc1cc(C(=O)O/N=C(\\N)c2ccncc2)ccc1[N+](=O)[O-]", "binding response (% of control)": "inconclusive: 7.6%"}, {"compound": "CC1SCC(NC(=O)c2ccccc2Cl)CS1", "note": "(stereo unspecified)", "binding response (% of control)": "inconclusive: 126%"}, {"compound": "c1ccc(CN2CCC(N=C3NN=C(c4ccc5c(c4)OCCO5)CS3)CC2)cc1", "binding response (% of control)": "inconclusive: 81.5%"}, {"compound": "O=C(NCc1ccc2c(c1)OCO2)c1sccc1Br", "binding response (% of control)": "inconclusive: 112%"}, {"compound": "COC(=O)c1ccc(CNC(=O)COC(=O)Cc2ccsc2)cc1", "binding response (% of control)": "inconclusive: 87.4%"}, {"compound": "O=C(COC(=O)/C=C/c1cn(-c2ccccc2)nc1-c1ccc2c(c1)OCCO2)NC1CCS(=O)(=O)C1", "note": "(stereo unspecified)", "binding response (% of control)": "inconclusive: 164%"}, {"compound": "Cc1ccc2cc3c(N)c4c(C)ccc(C)c4nc3nc2c1", "binding response (% of control)": "inconclusive: 115%"}, {"compound": "O=C(/C=C/c1ccco1)N(Cc1cccc(Br)c1)C1CCS(=O)(=O)C1", "note": "(stereo unspecified)", "binding response (% of control)": "inconclusive: 91.3%"}, {"compound": "COc1ccc(N2CCN(C(CNS(C)(=O)=O)c3ccco3)CC2)cc1", "note": "(stereo unspecified)", "binding response (% of control)": "inactive: 103%"}, {"compound": "CC(=O)OC1CC[C@@]2(C)C(CCC3C2CC(=O)[C@@]2(C)C3CC3CC(C)=CC(=O)C32)C1", "note": "(stereo partly specified)", "binding response (% of control)": "inconclusive: 95.5%"}, {"compound": "CS(=O)(=O)NNC(=O)c1sccc1OCc1ncc(C(F)(F)F)cc1Cl", "binding response (% of control)": "inconclusive: 67.4%"}, {"compound": "CCC(=O)c1ccc(OCC(=O)c2ccc3c(c2)NC(=O)CO3)cc1", "binding response (% of control)": "inconclusive: 77.1%"}, {"compound": "C(=N\\Nc1nc(Nc2ccccc2)nc(N2CCCCC2)n1)/c1ccco1", "binding response (% of control)": "inactive: 103%"}, {"compound": "CN(C)C(=O)Cn1cnc2c(cnn2-c2ccccc2Cl)c1=O", "binding response (% of control)": "inactive: 101%"}, {"compound": "Cc1cc(C(=O)OCC(=O)NCc2cccs2)c2ccccc2n1", "binding response (% of control)": "inactive: 95.4%"}, {"compound": "COc1ccc(-c2cc(C(F)(F)F)nc(SCC(=O)NCCCN3CCOCC3)n2)cc1", "binding response (% of control)": "inconclusive: 109%"}, {"compound": "O=C(Nc1cccc(-c2csc(Nc3cccc(C(F)(F)F)c3)n2)c1)c1cc([N+](=O)[O-])cc(C(F)(F)F)c1", "binding response (% of control)": "inconclusive: 95.6%"}, {"compound": "CCOCCCNC(=O)c1cc(=O)n(Cc2cccc(C)c2)c2ccccc12", "binding response (% of control)": "inactive: 100%"}, {"compound": "COCCN(CCOC)C(=O)COC(=O)c1cc([N+](=O)[O-])ccc1Cl", "binding response (% of control)": "inconclusive: 88.3%"}, {"compound": "CC(C)Cc1cc(CN2CCC(CO)(Cc3ccccc3)CC2)[nH]n1", "binding response (% of control)": "inconclusive: 114%"}, {"compound": "O=C1C=CN(Cc2ccccc2)CC1", "binding response (% of control)": "inconclusive: 112%"}, {"compound": "O=[N+]([O-])c1ccc(/C=[N+](\\[O-])CCO)o1", "binding response (% of control)": "inconclusive: 45.3%"}, {"compound": "Cc1ccc2c(c1)oc(=O)n2CC(=O)c1ccccc1", "binding response (% of control)": "inconclusive: 120%"}, {"compound": "O=C(CN1CCOCCOCCOCCOCC1)Nc1ccccc1", "binding response (% of control)": "inactive: 97.3%"}, {"compound": "CNC(=S)NC(CC(=O)OC)c1ccc2c(c1)OCO2", "note": "(stereo unspecified)", "binding response (% of control)": "inconclusive: 86.2%"}, {"compound": "CCCC(C(=O)NC(C)(C)C)N(C(=O)c1snc(C(N)=O)c1N)c1ccc2c(c1)OCCO2", "note": "(stereo unspecified)", "binding response (% of control)": "inactive: 136%"}, {"compound": "O=C(O)CC/C(=N/NC(=O)CNC(=O)Cc1ccc(Cl)cc1)c1ccccc1", "binding response (% of control)": "inconclusive: 97.5%"}, {"compound": "CCN1C(=O)C(CC(=O)Nc2ccc(OC)cc2)N(Cc2ccc(OC)c(OC)c2)C1=S", "note": "(stereo unspecified)", "binding response (% of control)": "inconclusive: 99.3%"}, {"compound": "S=C(Nc1cccc2ccccc12)NN1CCOCC1", "binding response (% of control)": "inactive: 116%"}, {"compound": "COc1cc(C(=O)Nc2ccncc2)c([N+](=O)[O-])cc1OC", "binding response (% of control)": "inconclusive: 117%"}, {"compound": "COc1ccc(NC(=O)c2sccc2OS(=O)(=O)N(C)C)cc1", "binding response (% of control)": "inactive: 102%"}, {"compound": "COC(CNC(=O)c1c[nH]c2ccc(S(=O)(=O)N3CCC4(CC3)OCCO4)cc2c1=O)OC", "binding response (% of control)": "inactive: 96.2%"}, {"compound": "O=C(N/N=C/c1c(O)n(Cc2ccccc2)c(=O)c2ccccc12)c1cccnc1", "binding response (% of control)": "inconclusive: 71.1%"}, {"compound": "NC(N)=NC(=S)Nc1ccc(Cl)cc1", "binding response (% of control)": "inconclusive: 175%"}, {"compound": "Cc1ccc(N=c2c([N+](=O)[O-])nn(-c3ccc4c(c3)OCCO4)n2O)cc1F", "binding response (% of control)": "inconclusive: 93.8%"}, {"compound": "CCN(C(=O)CN1C(=S)NC(C)(C)CC1C)c1ccc(C)c(C)c1", "note": "(stereo unspecified)", "binding response (% of control)": "inconclusive: 104%"}, {"compound": "CS(=O)(=O)N1N=C(c2ccco2)CC1c1ccccc1Cl", "note": "(stereo unspecified)", "binding response (% of control)": "inconclusive: 639%"}, {"compound": "COC(C[C@H](O)C[C@@H](O)[C@H](C)OCc1ccccc1)OC", "binding response (% of control)": "inconclusive: 86.6%"}, {"compound": "Cc1cccc(N(CC(=O)N/N=C/c2ccccc2C(=O)O)S(C)(=O)=O)c1C", "binding response (% of control)": "inconclusive: 94.1%"}, {"compound": "Cc1nn(-c2ccccc2)c2nc(C(Cl)(Cl)Cl)[nH]c(=O)c12", "binding response (% of control)": "inconclusive: 534%"}, {"compound": "O=C(Oc1c(-c2ccccc2)c(=O)n2c3c(cccc13)CC2)c1cccc([N+](=O)[O-])c1", "binding response (% of control)": "inconclusive: -141%"}, {"compound": "CC(C)Oc1ccc(C(=O)NCC(=O)O)cc1", "binding response (% of control)": "inconclusive: 146%"}, {"compound": "C#CCSc1cc(C(F)(F)F)nc(-c2ccccn2)n1", "binding response (% of control)": "inconclusive: 108%"}, {"compound": "C/C(=N\\NC(=S)Nc1ccccc1C)c1ccc(O)cc1", "binding response (% of control)": "inactive: 101%"}, {"compound": "O=C(NCc1cccc(Cl)c1)c1ccc(-c2csnn2)cc1", "binding response (% of control)": "inconclusive: 128%"}, {"compound": "Cc1ccc(S(=O)(=O)c2c(C)nn(C(C)(C)C)c2OC(=O)C(C)C)cc1", "binding response (% of control)": "inconclusive: 102%"}]}]}
